# In PubChem BioAssay AID1347426 (Functional Genomics Laboratory (NCATS/FGL), 2020):
# The whole screen tested about 31,000 sequences, of which about 1,400 (4.5%) were called active.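 How the source made its calls: active means median seed-adjusted z-score above 1 or below -1; inactive means the rest.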 The list shows a part of the results.
# Assay: Novel Modifiers of Survival Motor Neuron (SMN) Protein: Gene Identification via Genome-wide siRNA Screen;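 further: luminescence tracks full-length SMN protein made from the SMN2 reporter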
# Settings: HEK293T SMN2-luciferase reporter, siRNA knockdown, 72 h; actives lie on both sides
# Procedure, shortened: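 siRNA screen, 10418 genes ×3 siRNAs; 1 pmol/well, lipid reverse transfection into HEK293T SMN2-luc reporter line. 72 h, 37 °C, 5% CO2; ONE-Glo readout. Data: neg-ctrl normalized, log10, MAD; hit = MAD >1.0 or < -1.0.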
row,Sequence,median seed-adjusted z-score
1,GGAGGAGGCUACUACCACUTT against NDUFS7,inactive: -0.386
2,GCCCUCCUAUGAAAACGCATT against ZNF77,inactive: 0.345
3,GAAUCUUAAUAUUCGAAGUTT against XIAP,inactive: -0.0329
4,GAGUUUGAUGUUUCCGGAATT against ZNF407,inactive: 0.00802
5,CCCUGAUGUUAUAACGAAATT against GLT6D1,inactive: 0.145
6,GGCUCGUAUCAACACCUAUTT against SATB1,inactive: 0
7,AGAUCCUGAUGUUACGCAUTT against PHKG2,inactive: -0.371
8,CGCUGUAGUUUACAAUGCATT against KLHL12,inactive: -0.0991
9,GAUGAUGUCUGAAGACCGATT against GFPT2,inactive: 0.412
10,GCAUUAUCCACGAGGCAAATT against ATP6V1H,inactive: 0.146
11,CCCUUUUCUUUAUCCCUGATT against IL9R,active: -1.33
12,CCAUCCAGUUUUUCCAGAATT against MRAS,inactive: 0.032
13,GGACAACAGGAGUCAGGUATT against AQP4,inactive: -0.361
14,GGAUUUCUACCGCUCCACGTT against MYCL1,inactive: 0.0658
15,GCAGAGCUGGAAUCCAGGATT against KRT40,inactive: -0.324
16,GGAAGAGGAGUAGACCUUATT against RAB5A,inactive: 0.244
17,CAUCACUGCGAUUUCCUGATT against 1-Sep,inactive: 0.0103
18,CCACUAAAGUGUCCUACCATT against GCM2,inactive: -0.241
19,CCACUCUCAUCAAAUCCGATT against MLL2,active: -2.11
20,AAGUUCAGUUUUGACAUCATT against RTN4RL1,inactive: -0.537
21,GAAGUACCCUUACAUACCATT against PKP4,inactive: 0.368
22,GCUUCGGUAUAAUAGGUCUTT against PUM2,inactive: -0.129

row,Sequence,median seed-adjusted z-score
1,AUAUUUUAAAGGACCAGAATT against IL12B,inactive: 0.409
2,GCAGAAGCCUGGAACUCUATT against RNASET2,inactive: -0.126
3,CAGAAUCGCUUCUACAAGATT against SPAG6,inactive: -0.439
4,GCUACAUCCUGUUCGAGAATT against CYP27A1,inactive: -0.391
5,AGACAAUGGAAAUCCCAAATT against LRP2BP,inactive: -0.547
6,CACUCAACAUUACAGAUUUTT against ZNF514,inactive: 0.125
7,CCUACGUUACUUUCCCUCATT against FOXD4L6,inactive: -0.137
8,CCUUGACUGUGGACAACAATT against PURA,inactive: -0.0185
9,GUGAAAUCCAUGUUUCAUATT against SMYD1,inactive: -0.0827
10,GGACUAUGCAAAGAAUCUATT against RPS6KB1,active: 1.4
11,GUCUCGAUGGAGCAAAGUATT against TCERG1,inactive: 0.415
12,AGGUUUUUAUCGACACUAUTT against CHRNA1,inactive: -0.32
13,GGAAAUCUGAAGACGAUAATT against CCAR1,active: -1.18
14,GACUAUCCAAGGGAACAUUTT against ESRRB,inactive: -0.611
15,CGAGAAUAAGUCCAAGUUUTT against ENO3,inactive: -0.142
16,CACUGGAACUCUACCAUCATT against MYBL2,inactive: 0.592
17,GGAAGUCUACGGGACCGAATT against LTF,inactive: 0.236
18,GGAGGACUAUGUGCUUAGATT against 5-Mar,inactive: 0
19,GGAGUUAUUUGAACGGCAATT against INO80,inactive: 0.0546
20,CCACCAUACUAAUACCCUATT against AKAP11,inactive: -0.0405
21,GGAUGAAGUUAUCGAAAGATT against ALDH1A2,inactive: 0.564
22,GGUCUGAUCCAACUUCGUATT against ATP1B3,inactive: -0.225

row,Sequence,median seed-adjusted z-score
1,GGAAAGCAAUUCCUAGAAATT against PDC,inactive: -0.541
2,GGCGAUACCUGGUCAUUGATT against SMARCA1,inactive: 0.6
3,GCUCCAAAUGGAGAGUGUATT against PRKCDBP,inactive: 0.244
4,AGCUUCUUCUCGAUACUUUTT against SLC16A11,inactive: -0.396
5,CCGAGAGUAUGUCGACUUATT against CBFB,inactive: -0.0379
6,GCAGAUCAAGUUCGAGAAATT against AURKAIP1,inactive: 0.067
7,GCAAUAUCAGAUGCACAGATT against F8,inactive: -0.0992
8,CUCUGUCUCUAAUCGACAATT against UTY,inactive: -0.538
9,GGAAACAACUUUUAUGAAUTT against GCHFR,inactive: -0.559
10,GAGCUUAACUACUUAGGGATT against DHRS7,inactive: 0.255
11,CAUUCAUCCAUCUCACAUATT against CLSTN2,inactive: 0
12,GCAUCGCUGUUACCCAUCUTT against CCRN4L,inactive: -0.572
13,CAGUGUUCCUAUUAGAUGATT against LONP2,active: 1.52
14,AGAGCUAGAUGGAAGAACATT against SFRS3,active: 2.74
15,GGCACAGAUAGAUCGAUUUTT against RANBP9,inactive: -0.467
16,GCAGGAUUGUGAUCCACCATT against PCGF3,inactive: 0.876
17,CCAUAUUUGCACUAAAGGATT against PCTK1,inactive: -0.729
18,CCGUGGAGCUAAACAAUAUTT against MASP1,inactive: 0.653
19,GGAGUUCCAUAGCUGUCAATT against ADRA1B,inactive: -0.472
20,GGAUGGAGGACUAUGACUATT against BCAR1,inactive: -0.469
21,GGAACUCAUUGACCGCUAUTT against PLCD4,inactive: -0.4
22,GCAUCAUCGGUACCCAGUUTT against MPO,inactive: -0.223

# Copied from the list:
# CGCUGUAGUUUACAAUGCATT against KLHL12 – median seed-adjusted z-score: inactive: -0.0991
# GCAUUAUCCACGAGGCAAATT against ATP6V1H – median seed-adjusted z-score: inactive: 0.146
# GACUAUCCAAGGGAACAUUTT against ESRRB – median seed-adjusted z-score: inactive: -0.611
# GGACUAUGCAAAGAAUCUATT against RPS6KB1 – median seed-adjusted z-score: active: 1.4
# GGACAACAGGAGUCAGGUATT against AQP4 – median seed-adjusted z-score: inactive: -0.361
# CCCUUUUCUUUAUCCCUGATT against IL9R – median seed-adjusted z-score: active: -1.33
# AGAGCUAGAUGGAAGAACATT against SFRS3 – median seed-adjusted z-score: active: 2.74

# More records.

row,Sequence,median seed-adjusted z-score
1,GAGUUUAAUCUGAUUGAUATT against MOBKL1B,inactive: 0.31
2,UCAACACCCAGGAAGCAUATT against TNK1,inactive: -0.727
3,CUUAUCCACUCAUCACUAATT against RBM25,inactive: -0.265
4,GGUGGGUGAUUAUCUCUAUTT against KCNG3,inactive: 0.0832
5,CCAAUAUUGCAGACUUGGATT against MBOAT7,inactive: 0.314
6,GGAAGCUAUUGCAGACUUATT against PRDM13,inactive: 0
7,CCUCAUGUAUACUUACUUATT against HSD17B2,inactive: 0.521
8,CCCUGUUGCUAUCAAGUAUTT against AGPAT6,inactive: 0
9,UCAAGAUGCUCAAAGACAATT against FGFR4,inactive: 0.0825
10,AUGUCACGCUGGUGCCCUATT against IFI30,inactive: 0.401
11,UCCCUUACAUGUCACCAAATT against ZMIZ2,inactive: -0.27
12,GGCUUACUAUGCUUUUAAATT against CIB3,inactive: 0.234
13,UGGUCAAGGCAGAACAGAATT against TNNT1,inactive: 0
14,CCUACUCAUUUGACAUAGATT against ATP12A,inactive: -0.0941
15,GAAGAGCUUUGAGAAUGAUTT against INPPL1,inactive: 0.199
16,AAAGAAUGCGUGCUUUUAATT against RABGGTA,inactive: -0.0601
17,GGACAGUAGUUUAACUGAUTT against NEK1,inactive: 0.296
18,GCAUCUACAUGACCAACCUTT against GPR35,active: -1.46
19,CAACAUAUCUUGCUACGAATT against IFNGR2,inactive: 0.148
20,GUGAUUCACAGAGAUAUUATT against AURKC,inactive: -0.0275
21,GGUUAUAGCUUCAAGGUGATT against ERCC3,inactive: 0.155
22,GAACUAUGACAAGACAAAATT against 4-Mar,inactive: 0.168

row,Sequence,median seed-adjusted z-score
1,GGAACUUUCUGAAUUACGUTT against SLC7A8,inactive: -0.134
2,GACUUUGACCGACUCCGCATT against EPN1,inactive: 0
3,GCUAAGAGGUCUGUCCUAATT against CACNB4,inactive: -0.223
4,GGGUCAUCUAUAUCCGCAATT against GPR132,inactive: 0
5,GGUUCAGUAUAGACGACGATT against FAT3,inactive: 0.246
6,GAGUAAACCUCCAAAGAAATT against PDE6H,inactive: -0.0647
7,GAGUGUACCUGGAAUGUCUTT against ARNTL2,inactive: 0.102
8,CCACUAGCACAUUCCGCAATT against RBP2,inactive: 0.0132
9,CCACAGACCGGUAUAUUCATT against MTA2,inactive: 0.947
10,GGAUCAACUGGACAGCAAATT against CDC6,inactive: 0.0196
11,GAAAGAUUGUACCAGUUGATT against CMPK1,inactive: -0.363
12,GGAGAAGAGUCAGAACAAATT against PSTPIP1,inactive: -0.342
13,CCGUCAUUGUCAACCGGAATT against SLC4A5,active: 1.3
14,CCUUCAGUCGAUCCACUUATT against ZNF627,inactive: 0.204
15,GGCCUACUAUUCAACGGUATT against PANK4,inactive: 0.00068
16,GAUGUAUUCAGAUACGUGATT against ARHGAP5,inactive: -0.359
17,CCUUUGACACCAACAGCGATT against HPCA,inactive: 0.12
18,CAACUUCCACUGUUUCCGATT against RRAGC,inactive: -0.557
19,GGAGGUCUCAAGUUCAACATT against LENG8,inactive: -0.00539
20,CGAAUCAUAUGAUCUCCUATT against SLC30A5,inactive: 0.401
